Laboratory results: PMC3835791, “Non-Invasive Imaging of Tumors by Monitoring Autotaxin Activity Using an Enzyme-Activated Near-Infrared Fluorogenic Substrate” (PLoS ONE, 2013)

Test system: MDA-MB-231 orthotopic tumor (ATX activity)
Test: In vivo NIRF imaging and ex vivo tissue analysis of mice with orthotopic tumors
Conditions: AR-2 i.v. 0.5 mg/kg, imaged 48 h after injection
Source text: Animal studies were approved by the Institutional Animal Care and Use Committee (IACUC) of the University of Utah (protocol numbers 10-10016 and 12-05013). Tumors in mice were established as previously described, [41]. Briefly, approximately ten-week old female nude (Nu/Nu) mice (Charles River Laboratories International, Wilmington, MA) were lightly anesthetized with isoflurane and subcutaneously inoculated with MDA-MB-231 cells in the left thoracic mammary glands. Prior to inoculation, cells were suspended in Extracel to make 5×10^7 cells/mL and each mouse received 0.1 mL of Extracel tumor suspension. To reduce auto-fluorescence arising from the feed, mice were switched to specially formulated diet (2920X, Harlan Laboratories, WI) at least two days prior to imaging.
Six weeks after tumor graft, mice were imaged using AR-2. […] The fluorescence signals from acquired images were analyzed using Pearl Impulse Software v 2.0 (LI-COR Biosciences) according the manufacturer's protocols. […]
Animals were sacrificed, organs were dissected and weighed, then ex vivo fluorescence was imaged and quantified as previously described. […] ATX levels were determined by diluting supernatants ten times in RD5-10 and assayed using a Human ENPP-2/Autotaxin ELISA (R&D Systems, Minneapolis, MN) and an Autotaxin Sandwich ELISA (Echelon Biosciences, Inc., Salt Lake City, UT) using the manufacturers' protocol. […]

CC1(C)C(/C=C/C2=C(Oc3ccc(S(=O)(=O)O)cc3)C(=C/C=C3/N(CCCCS(=O)(=O)O)c4ccc(S(=O)(=O)[O-])cc4C3(C)C)/CCC2)=[N+](CCCCCC(=O)NCCCCCC(=O)OC[C@@H](O)COP(=O)(O)OCCNC(=O)CCOCCOCCOCCOCCNC(=O)CCCCCN2/C(=C/C=C3\CCCC(/C=C/C4=[N+](CCCS(=O)(=O)O)c5ccc(N(CCCS(=O)(=O)O)CCCS(=O)(=O)O)cc5C4(C)C)=C3Cl)C(C)(C)c3c2ccc2cc(S(=O)(=O)[O-])ccc32)c2ccc(S(=O)(=O)O)cc21 [AR-2]
NIRF signals in whole bodies of live tumor-bearing animals: tumor-specific and elevated compared to the rest of the body
